Article PMC10163288
The other results are listed elsewhere or left out.

B1: il10ra_site1_normal_mot_HHH_b2_06979_000000158_0001_42_57_H_._HHH_b2_06735_af2_0001_0000300023_0000001_0 (protein)
chain: SSSSDAELAQEAIRIIREAAELFRNGNPEEARELLEELREELEKAGNRLLLINVEYLLRDLSSSS
B2: il10ra_site1_sap_21_mot_HHH_b2_00612_000000251_0001_1_14_H_._HHH_b2_02757_af2_0001_0000400030_0000001_0_0001_af2pred_0001 (protein)
chain: SSSSNEEAKRAAEFFVKAAKQLEDPEKRRLTLRFAEHLAKEANDEELEREIEELLEELEKSSSSS
B3: il10ra_site1_normal_mot_HHH_b2_00475_000000107_0001_44_57_H_._HHH_b2_01638_af2_0001_0000300017_0000002_0 (protein)
chain: SSSSEAEQRVAELLFRALRLLAEGNPEEAREVVEEAHELAEENNDEELRKYVEILLHFIESHSSS
B4: il10ra_site1_normal_mot_HHH_b1_08356_000000013_0001_43_57_H_._HHH_b2_03796_0001_0000100007_0000001_0_af2pred_0001 (protein)
chain: SSSSSSSELERLLEEIEEALERGDPQEALRLSLEAARLAAELNDHEVLRELQELLEEIFSSSSSS
B5: il10ra_site1_normal_mot_HHH_b1_02168_af2_000000274_0001_1_19_H_._HHH_b2_02103_0001_0000500035_0000002_0_af2pred_0001 (protein)
chain: SSSSSSERQVRLRVEVLLWFAEFSNNPEAVKQALEMAEEIARENNDPELEELVEEVKRRLSSSSS
B6: il10ra_site1_normal_mot_HHH_b2_07579_000000275_0001_1_19_H_._HHH_b2_02232_0001_0000300044_0000001_0 (protein)
chain: SSSSDLSEEVFKLIREAAELLRKGNPEEAEKVLEKAEELAQEAGNEVFRFAIRFLLRDIEESSSS
B7: il10ra_site1_normal_mot_HHH_b1_04693_000000238_0001_19_36_H_._HHH_b2_06085_af2_0001_0000700026_0000002_0 (protein)
chain: SSSSSDQELYELIRELIELLLEGDEEEIERLEEEIEKLAKELNNRVLLFVARAARRLQEKSSSSS
B8: il10ra_site1_normal_mot_HHH_b1_07527_000000076_0001_1_15_H_._HHH_b2_06940_af2_0001_0000100005_0000001_1 (protein)
chain: SSSSDERTDEVYKLIREAMELARNGNPEEAEKVLEEAKHIAEEAGNYAALFSIRHLERDLKSSSS
B9: il10ra_site1_sap_17_mot_HHH_b2_01705_af2_000000069_0001_44_57_H_._HHH_b2_04738_af2_0001_0000200006_0000001_1_0001 (protein)
chain: SSSSSSDVEELLEELEELLEQGNREEALKVLQEALRLAYQRSDPELLQLLWEIARRLGSSSSSSS
B10: il10ra_site1_normal_mot_HHH_b2_08144_af2_000000046_0001_38_52_H_._HHH_b1_08314_af2_0001_0000400033_0000001_0_af2pred_dldesign_0_af2pred (protein)
chain: SSSSSEKIEEIVRLLREAALLLSEGKPEEAKELVEKALKLAEELGDEILKHTAEFLLSRVSSSSS
B11: il10ra_site1_sap_19_mot_1f0bf248c09923a0581b66a675a8b92c_0001_af2_000000188_0001_52_65_H_._ed672b822448df934975055ed07e5099_0001_1_0001_0000300010_0000001_1_000 … (protein)
chain: SSSSSEDEREVERLLEEAKEAAKRDPKRASYLLTRAFAIAAHSNNEELKELVHEVAQELTHSSSS
B12: il10ra_site1_normal_mot_HHH_b2_04275_000000272_0001_20_36_H_._HHH_b1_02339_af2_0001_0000300026_0000001_1 (protein)
chain: SSSSTQEVYELLEELSKLIHEGDEEEFEKLFEEIEKLIKELGNENMRAVLESLERLFKANKSSSS
B13: il10ra_site1_normal_mot_HHH_b2_00622_af2_000000153_0001_40_57_H_._1ad9cd31332199d645683f25bccb3f2f_0001_af2_0001_0000400005_0000001_0 (protein)
chain: DEYVKRAVRFALRLPDPERREKLLRAALQLAERLGDPIRELIEQLIEALRRGDPELEREISEELR
B14: il10ra_site1_sap_19_mot_HHH_b1_03685_af2_000000224_0001_1_18_H_._HHH_b1_01544_af2_0001_0000300003_0000001_0_0001 (protein)
chain: SSSSSDEEEAEQIFEEARRLAEELGNRAARFLVRQALKAYRLTGDPKVLEIVERLLRILRSSSSS
B15: il10ra_site1_sap_17_mot_HHH_b1_04771_000000013_0001_40_56_H_._HHH_b2_03279_0001_0000200007_0000001_0_0001 (protein)
chain: SSSSDEFERLMELIEEAMELHADGNEEEAEKVLEEAEELAEELNNDIVRRLLEKLLRKLGSSSSS
B16: il10ra_site1_normal_mot_HHH_b1_05357_000000034_0001_23_39_H_._HHH_b2_02453_0001_0000600026_0000001_0_af2pred_0001 (protein)
chain: SSSSDVEEELEELLEEAKRIEDRLRANYVLARAFALATKRRDPELEEFVEEAAKRIVEEGSSSSS
B17: il10ra_site1_normal_mot_HHH_b2_08144_af2_000000046_0001_38_52_H_._HHH_b2_07064_af2_0001_0000100006_0000001_0 (protein)
chain: SSSSDEERREVYELSRRAAELHHDGNEEEAQELLERARELAEELNNPLMLIQVEFLLRLISSSSS
B18: il10ra_site1_sap_20_mot_HHH_b1_05609_af2_000000134_0001_1_18_H_._HHH_b1_01684_0001_0000400040_0000002_0_0001 (protein)
chain: SSSSDEEEERLRELLEELEELVEEGDLERFAKVAQEALRLAFRLGDEEVLQRLFELVERIASSSS
B19: il10ra_site1_sap_20_mot_HHH_b1_01082_af2_000000031_0001_3_19_H_._HHH_b1_04169_0001_0000200031_0000001_0_0001 (protein)
chain: SSSSTYEELKRLVEEILEAIRNGDPELARELLEELQKLIEEKGDWAARFTLELLERALENSSSSS
B20: il10ra_site1_normal_mot_HHH_b2_00273_000000062_0001_23_39_H_._HHH_b2_07916_af2_0001_0000100002_0000001_0 (protein)
chain: SSSSSEEEEKLEELVKELEELVEEGDEEKVLELALRAIQLAFELSDQEVLQRLHELVRSLQSSSS
B21: il10ra_site1_normal_mot_e16fbc155443e7b5a8f44372f038f9e6_0001_1_000000271_0001_16_33_H_._HHH_b2_03173_0001_0000100001_0000001_0 (protein)
chain: SSSSDVEERLEELVEQLVEELGLSEEEEKALRLIARLLLLAGLDPRWVERSVEYIARQNAKSSSS
B22: il10ra_site1_sap_16_mot_HHH_b2_00262_000000269_0001_18_35_H_._0747388746a55ac07d1e89ee11861e50_0001_af2_0002_0001100025_0000002_0_0001 (protein)
chain: SSSSDQEEELLEAAIRLVEQALEWGDEELARMMIAAIEMLAREVGDEEAEEFVEKVKEKLSSSSS
B23: il10ra_site1_normal_mot_HHH_b1_00456_000000263_0001_1_17_H_._HHH_b1_02339_af2_0001_0000400034_0000002_0_af2pred_0001 (protein)
chain: SSSSSEEVKELLEELKKLVEEGDEEKFRELYIEIALLIAQLGDEELAHILTRLFAEFNRLHSSSS
B24: il10ra_site1_normal_mot_HHH_b1_03333_000000091_0001_1_17_H_._HHH_b1_02376_af2_0001_0001000012_0000001_0 (protein)
chain: SSSNEYELAREIIEEVAELLHKNDEERIEELLEELERLAHEKNNTAVESAINAIKIALEALSSSS
B25: il10ra_site1_sap_23_mot_HHH_b2_06795_000000133_0001_42_56_H_._HHH_b2_00160_af2_0001_0000900017_0000002_0_0001 (protein)
chain: SSSSSDDETERLYELSEEALRIDDPEEAEEVVQEAFELAEEAGNRVLLKNIRFLLEQLRSSSSSS
B26: il10ra_site1_normal_mot_HHH_b2_00273_000000062_0001_23_39_H_._HHH_b2_06821_0001_0000700082_0000001_0 (protein)
chain: SSSSEIEEYIEEVEERVRELVERGDTEEALQLLWEAAKLVAENNDEEALRILAELLRLVFRSSSS
B27: il10ra_site1_sap_24_mot_HHH_b2_07442_000000239_0001_40_54_H_._HHH_b2_00050_0001_0000800015_0000002_0_0001 (protein)
chain: SSSSTQEVLELAKRIFELLLRGNYEEAEELIEEALRLAEEEGSEQARFVLEHLLRTVRAELSSSS
B28: il10ra_site1_sap_18_mot_HHH_b1_05357_000000034_0001_23_39_H_._HHH_b2_08282_0001_0000300031_0000001_0_0001 (protein)
chain: SSSSDEEERLEELLRELEELIERNDDERFLEVALEVLRLAYRANDPEALRAVWELVRKAGSSSSS
B29: il10ra_site1_normal_mot_HHH_b1_02397_af2_000000085_0001_39_57_H_._HHH_b2_06748_af2_0001_0000600026_0000002_0 (protein)
chain: SSSSDREELAEEVERELEELAEEGDREEFARLAQEALRLAFRLSDPELLKRLWELVRKAASSSSS
B30: il10ra_site1_normal_mot_HHH_b1_02809_af2_000000277_0001_40_57_H_._HHH_b1_00088_0001_0000100004_0000001_0_af2pred_0001 (protein)
chain: SSSSDEAERSVRILLRAAERLIELGNPELAKLALRDAAIAAKDGNNEELLERVEKLLEELSSSSS
B31: il10ra_site1_sap_26_mot_HHH_b2_02757_000000230_0001_1_19_H_._HHH_b2_08066_0001_0000100007_0000001_1_0001_af2pred_0001 (protein)
chain: SSSSSSEEIVEKAAVRASEAKREGNPEEAERILEEAAEEVEKRGDRELVKLLEALLRLLKSSSSS
B32: il10ra_site1_normal_mot_ems_3hM_3349_000000016_0001_25_42_H_._f9c37336de6f1513c893807100b70f62_0001_af2_0001_0000400015_0000001_0 (protein)
chain: SVEELLEELLRQKLPPHEVKQILLALELQEKQAGDPKQALRALLAFLRLAGDPESAEVVEEVIRH
B33: il10ra_site1_sap_29_mot_HHH_b1_03613_af2_000000245_0001_1_20_H_._HHH_b2_04513_af2_0001_0000100001_0000002_1_0001_af2pred_0001 (protein)
chain: SSSSSSEERIRRTFRFAKFAIEQGDEEAAKLAIRFLEELAKQANDPEAEELVEELRELLSSSSSS
B34: il10ra_site1_normal_mot_HHH_b1_00999_000000080_0001_41_55_H_._HHH_b1_08189_0001_0000600028_0000001_1 (protein)
chain: SSSSSSREFIRLLQEAVRLAFRLSDEELLQALWRLAREWGEEGDEKYAEELQELIEEVGSSSSSS
B35: il10ra_site1_sap_19_mot_HHH_b1_06912_af2_000000235_0001_1_15_H_._HHH_b1_01587_0001_0000300023_0000001_0_0001_af2pred_0001 (protein)
chain: SSSSSAEERLEELLREIEEALEEGDHELVLKLLLEVSKFALKLGDHEITKRILELAKLLKSSSSS
B36: il10ra_site1_sap_18_mot_HHH_b2_00943_af2_000000149_0001_1_17_H_._HHH_b1_00930_af2_0001_0000200006_0000001_0_0001 (protein)
chain: SSSSSDVEEEVEELLERAEKIEDPDEWYRLLKEAIELASEANDPELFRLVMKVLHESLKGSSSSS
B37: il10ra_site1_normal_mot_HHH_b1_04015_af2_000000074_0001_1_17_H_._HHH_b1_02994_0001_0000400033_0000001_0 (protein)
chain: SSSSSDEYQEEVEELLERAEHIPDPEERYKLLKEAIQLAVEANDEELERLVIEVLRRLLHSSSSS

Target: il10ra, Q13651
Assay: yeast display titration

Apparent Kd, inactive:
B1 no binding seen
B2 no binding seen
B3 no binding seen
B4 no binding seen
B5 no binding seen
B6 no binding seen
B7 no binding seen
B8 no binding seen
B9 no binding seen
B10 no binding seen
B11 no binding seen
B12 no binding seen
B13 no binding seen
B14 no binding seen
B15 no binding seen
B16 no binding seen
B17 > 959 nM
B18 no binding seen
B19 no binding seen
B20 no binding seen
B21 no binding seen
B22 no binding seen
B23 no binding seen
B24 no binding seen
B25 no binding seen
B26 no binding seen
B27 no binding seen
B28 no binding seen
B29 no binding seen
B30 no binding seen
B31 no binding seen
B32 no binding seen
B33 no binding seen
B34 no binding seen
B35 no binding seen
B36 no binding seen
B37 no binding seen

Two neighbouring records out of the list so far, quoted:
Apparent Kd, inactive:
B26 no binding seen
B27 no binding seen
